Data: article doi:10.1101/2025.11.10.25339594
Results are given in words; binding and its absence hold for the method and conditions named. In cells and extracts the contact can be indirect. Some entries that bind do so weakly or less than the wild type.

Biological target: p21 (human (endogenous in HNSCC cell lines)), P38936
Assay: co-IP
Conditions: remark: other sources report otherwise

binding: binds
B1: T172-phosphorylated CDK4, P11802 1-303 (enzyme)
chain: MATSRYEPVAEIGVGAYGTVYKARDPHSGHFVALKSVRVPNGGGGGGGLPISTVREVALLRRLEAFEHPNVVRLMDVCATSRTDREIKVTLVFEHVDQDLRTYLDKAPPPGLPAETIKDLMRQFLRGLDFLHANCIVHRDLKPENILVTSGGTVKLADFGLARIYSYQMALTPVVVTLWYRAPEVLLQSTYATPVDMWSVGCIFAEMFRRKPLFCGNSEADQLGKIFDLIGLPPEDDWPRDVSLPRGAFPPRGPRPVQSVVPEMEESGAQLLLEMLTFNPHKRISAFRALQHSYLHKDEGNPE
modifications: here or on the partner: phosphothreonine at 172 (T172)
